Test results: PMC5570905, “Phytochrome-interacting factors directly suppress MIR156 expression to enhance shade-avoidance syndrome in Arabidopsis”
Results are given in words; binding and its absence hold for the method and conditions named. One block for each binder: values may come before it.

Key:
Experiment in all cases: two-hybrid; pGADT7-PIFs and pGBKT7-SPLs co-transformed into yeast strain AH109; transformants selected on SD/-Ura/-Leu, interaction tested on SD/-Ura/-Leu/-His/-Ade
[1] = molecular target: T1, SQUAMOSA-PROMOTER BINDING PROTEIN-LIKE 10 (Arabidopsis thaliana) (UniProt Q8S9L0)
T1 sequence: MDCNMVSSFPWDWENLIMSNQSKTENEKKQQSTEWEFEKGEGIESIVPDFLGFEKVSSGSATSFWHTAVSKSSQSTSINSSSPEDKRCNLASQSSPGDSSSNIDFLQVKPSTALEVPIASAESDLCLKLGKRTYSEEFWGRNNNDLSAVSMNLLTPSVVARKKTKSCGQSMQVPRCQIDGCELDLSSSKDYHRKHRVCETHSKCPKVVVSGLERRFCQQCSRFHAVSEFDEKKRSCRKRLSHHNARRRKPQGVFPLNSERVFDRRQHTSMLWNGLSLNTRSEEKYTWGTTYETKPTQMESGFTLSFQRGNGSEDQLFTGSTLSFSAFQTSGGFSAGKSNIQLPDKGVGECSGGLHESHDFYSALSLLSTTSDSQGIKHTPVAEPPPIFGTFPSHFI

[2] = molecular target: T2, SQUAMOSA-PROMOTER BINDING PROTEIN-LIKE 11 (Arabidopsis thaliana) (UniProt Q9FZK0)
T2 sequence: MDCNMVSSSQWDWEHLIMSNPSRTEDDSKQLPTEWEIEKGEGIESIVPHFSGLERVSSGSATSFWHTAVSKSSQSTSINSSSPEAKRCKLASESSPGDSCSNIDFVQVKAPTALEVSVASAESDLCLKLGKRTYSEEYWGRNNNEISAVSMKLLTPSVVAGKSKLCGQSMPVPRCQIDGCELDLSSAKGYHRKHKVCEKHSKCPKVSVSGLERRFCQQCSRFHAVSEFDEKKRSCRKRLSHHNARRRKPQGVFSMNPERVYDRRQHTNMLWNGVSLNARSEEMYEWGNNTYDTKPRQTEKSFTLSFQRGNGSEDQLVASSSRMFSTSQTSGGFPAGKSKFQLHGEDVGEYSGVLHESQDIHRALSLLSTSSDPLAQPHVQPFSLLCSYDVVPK

[3] = molecular target: T3, SQUAMOSA-PROMOTER BINDING PROTEIN-LIKE 15 (Arabidopsis thaliana) (UniProt Q9M2Q6)
T3 sequence: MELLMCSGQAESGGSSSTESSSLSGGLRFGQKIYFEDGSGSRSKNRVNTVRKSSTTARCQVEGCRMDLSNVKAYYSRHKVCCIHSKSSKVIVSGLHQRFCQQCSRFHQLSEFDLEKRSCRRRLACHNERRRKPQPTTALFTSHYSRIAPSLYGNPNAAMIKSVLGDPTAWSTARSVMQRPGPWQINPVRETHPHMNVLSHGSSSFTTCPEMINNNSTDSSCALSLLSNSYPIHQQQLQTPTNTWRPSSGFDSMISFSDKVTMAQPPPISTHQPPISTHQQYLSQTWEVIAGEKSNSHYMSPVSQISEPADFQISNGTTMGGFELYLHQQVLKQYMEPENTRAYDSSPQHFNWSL

[4] = molecular target: T4, SQUAMOSA-PROMOTER BINDING PROTEIN-LIKE 2 (Arabidopsis thaliana) (UniProt Q9S840)
T4 sequence: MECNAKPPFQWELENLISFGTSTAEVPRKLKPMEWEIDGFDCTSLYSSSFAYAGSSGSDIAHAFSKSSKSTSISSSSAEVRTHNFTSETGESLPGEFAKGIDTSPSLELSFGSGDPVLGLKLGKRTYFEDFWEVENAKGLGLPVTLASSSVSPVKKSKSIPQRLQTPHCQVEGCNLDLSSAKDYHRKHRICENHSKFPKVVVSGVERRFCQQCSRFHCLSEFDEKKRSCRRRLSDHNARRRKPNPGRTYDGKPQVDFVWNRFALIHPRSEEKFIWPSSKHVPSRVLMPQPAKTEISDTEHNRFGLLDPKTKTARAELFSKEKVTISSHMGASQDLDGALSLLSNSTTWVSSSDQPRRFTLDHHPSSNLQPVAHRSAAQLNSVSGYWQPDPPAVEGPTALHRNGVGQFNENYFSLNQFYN

[5] = molecular target: T5, SQUAMOSA-PROMOTER BINDING PROTEIN-LIKE 3 (Arabidopsis thaliana) (UniProt P93015)
T5 sequence: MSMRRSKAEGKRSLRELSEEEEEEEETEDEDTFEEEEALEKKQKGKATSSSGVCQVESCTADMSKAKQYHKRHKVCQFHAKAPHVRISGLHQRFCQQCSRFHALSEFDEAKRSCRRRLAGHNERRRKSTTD

[6] = molecular target: T6, SQUAMOSA-PROMOTER BINDING PROTEIN-LIKE 4 (Arabidopsis thaliana) (UniProt Q9S7A9)
T6 sequence: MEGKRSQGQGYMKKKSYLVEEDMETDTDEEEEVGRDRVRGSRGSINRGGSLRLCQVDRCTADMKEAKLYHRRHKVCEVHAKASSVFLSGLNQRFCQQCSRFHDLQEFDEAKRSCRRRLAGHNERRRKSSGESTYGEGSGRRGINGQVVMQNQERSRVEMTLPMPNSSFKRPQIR

[7] = molecular target: T7, SQUAMOSA-PROMOTER BINDING PROTEIN-LIKE 5 (Arabidopsis thaliana) (UniProt Q9S758)
T7 sequence: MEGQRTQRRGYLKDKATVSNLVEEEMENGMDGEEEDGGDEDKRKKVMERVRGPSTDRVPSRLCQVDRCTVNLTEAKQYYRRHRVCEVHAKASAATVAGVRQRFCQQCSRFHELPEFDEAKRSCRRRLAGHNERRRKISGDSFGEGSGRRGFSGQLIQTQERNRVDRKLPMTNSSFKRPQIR

[8] = molecular target: T8, SQUAMOSA-PROMOTER BINDING PROTEIN-LIKE 9 (Arabidopsis thaliana) (UniProt Q700W2)
T8 sequence: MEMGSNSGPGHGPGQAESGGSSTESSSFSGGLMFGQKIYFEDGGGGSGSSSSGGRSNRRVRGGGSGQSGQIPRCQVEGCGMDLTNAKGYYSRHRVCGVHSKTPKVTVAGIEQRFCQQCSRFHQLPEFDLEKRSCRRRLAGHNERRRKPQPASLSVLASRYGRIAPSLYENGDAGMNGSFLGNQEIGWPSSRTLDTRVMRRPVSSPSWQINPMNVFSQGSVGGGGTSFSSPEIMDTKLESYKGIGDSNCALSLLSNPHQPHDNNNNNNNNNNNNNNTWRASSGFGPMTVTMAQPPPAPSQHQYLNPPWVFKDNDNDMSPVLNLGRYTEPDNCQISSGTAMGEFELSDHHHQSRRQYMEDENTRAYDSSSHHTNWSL

binding [1]: no binding
binding [2]: no binding
binding [3]: no binding
binding [4]: no binding
binding [5]: no binding
binding [6]: no binding
binding [7]: no binding
binding [8]: no binding
B1: PHYTOCHROME-… FACTOR 5 (protein, UniProt Q84LH8 1-444)
chain: MEQVFADWNFEDNFHMSTNKRSIRPEDELVELLWRDGQVVLQSQARREPSVQVQTHKQETLRKPNNIFLDNQETVQKPNYAALDDQETVSWIQYPPDDVIDPFESEFSSHFFSSIDHLGGPEKPRTIEETVKHEAQAMAPPKFRSSVITVGPSHCGSNQSTNIHQATTLPVSMSDRSKNVEERLDTSSGGSSGCSYGRNNKETVSGTSVTIDRKRKHVMDADQESVSQSDIGLTSTDDQTMGNKSSQRSGSTRRSRAAEVHNLSERRRRDRINERMKALQELIPHCSRTDKASILDEAIDYLKSLQMQLQVMWMGSGMAAAAAAAASPMMFPGVQSSPYINQMAMQSQMQLSQFPVMNRSAPQNHPGLVCQNPVQLQLQAQNQILSEQLARYMGGIPQMPPAGNQMQTVQQQPADMLGFGSPAGPQSQLSAPATTDSLHMGKIG

binding [1]: no binding
binding [2]: no binding
binding [3]: no binding
binding [4]: no binding
binding [5]: no binding
binding [6]: no binding
binding [7]: no binding
binding [8]: no binding
B2: PHYTOCHROME-… FACTOR 1 (protein, UniProt Q8GZM7 1-478)
chain: MHHFVPDFDTDDDYVNNHNSSLNHLPRKSITTMGEDDDLMELLWQNGQVVVQNQRLHTKKPSSSPPKLLPSMDPQQQPSSDQNLFIQEDEMTSWLHYPLRDDDFCSDLLFSAAPTATATATVSQVTAARPPVSSTNESRPPVRNFMNFSRLRGDFNNGRGGESGPLLSKAVVRESTQVSPSATPSAAASESGLTRRTDGTDSSAVAGGGAYNRKGKAVAMTAPAIEITGTSSSVVSKSEIEPEKTNVDDRKRKEREATTTDETESRSEETKQARVSTTSTKRSRAAEVHNLSERKRRDRINERMKALQELIPRCNKSDKASMLDEAIEYMKSLQLQIQMMSMGCGMMPMMYPGMQQYMPHMAMGMGMNQPIPPPSFMPFPNMLAAQRPLPTQTHMAGSGPQYPVHASDPSRVFVPNQQYDPTSGQPQYPAGYTDPYQQFRGLHPTQPPQFQNQATSYPSSSRVSSSKESEDHGNHTTG
